Test results: patent US20220000967A1, “SYNTHETIC PEPTIDES INDUCING IMMUNOGENIC CELL DEATH” (SORBONNE UNIVERSITE, priority 2018, published 2022)
At least one compound was matched to its structure with a doubt left. Where a SMILES comes first, the peptide text is derived from it. [ ]: non-standard residue; d: D form. ξ: configuration not given here. ξP = O=C(O)C1CCCN1

Tests used:
CEM = test: Cell death by Annexin-V-APC/PI flow cytometry; assay type: cell-based, human
Protocol: (§1) CEM, MOLT-4 (T-acute lymphoblastic leukemia, T-ALL), and L5178Y-R (murine lymphoblastic T cell line) were obtained from ATCC. Human and murine PBMCs, human CD4+ and CD8+ T cells, and primary lymphoid organ's cells were obtained from healthy individuals. Cells were maintained in RPMI-1640 medium supplemented with 10% of fetal bovine serum, 2 mM L-glutamine, 100 U/mL penicillin-streptomycin (GIBCO by Life Technologies, Grand Island, N.Y., USA), and incubated at 37° C. in a controlled humidified atmosphere with 5% CO2. Cell count was performed using trypan blue (0.4% Sigma-Aldrich), a Neubauer chamber and an optic microscope (Zeiss Primo Star) as proposed by the ATCC's standard protocols. Flow Cytometry. Cell Death Induction, and Inhibition Annexin-V-allophycocyanin (Ann-V-APC 0.1 μg/ml; BD Pharingen, San Jose Calif., USA), propidium iodide (PI, 0.5 μg/ml Sigma-Aldrich), and tetramethylrhodamine ethyl ester (TMRE, 20 nM, Sigma-Aldrich) were used for phosphatidylserine exposure, cell viability, and mitochondrial transmembrane potential (UΨm) quantification, respectively, in a BD AccuryC6 flow cytometer (BD Biosciences) (total population 10,000 cells). Data were analyzed using FlowJo software. 1×10^6 cells/mL were treated for 2h with PKHB1 (as indicated). […]

L5178Y-R [1] = test: Calreticulin exposure (flow cytometry, confocal microscopy); assay type: cell-based, murine; conditions: KBTX-1, FACS and CRT-PE staining
Protocol: 1×10^6 cells/mL were plated, treated with PKHB1, and incubated for 2h. Cells were harvested, washed, and stained with Calreticulin-PE (FMC-75, Enzo Life Science, Farmingdale, N.Y., USA) antibody (1:1000) in FACS buffer. After 1h of incubation in darkness at room temperature, cells were washed and resuspended in 100Lp of FACS buffer to be assessed by flow cytometry. For confocal microscopy (OlympusX70), poly-Llysine was added 24h to sterile coverslips and 1×10^6 cells/mL were seeded. PKHB1 was added and incubated for 2h. Then, the cells were stained with Calreticulin-PE antibody (1:500) and Hoechst, incubated 1h, and assessed by confocal microscopy.

L5178Y-R [2] = test: Cell death by Annexin-V-APC/PI flow cytometry; assay type: cell-based, murine
Protocol: as §1

[3] = pre-treated 30 minutes with BAPTA or Q-VD-oPh

CC(C)C[C@@H]1NC(=O)[C@@H]2CCCN2C(=O)C2CCCN2C(=O)[C@H](Cc2c[nH]c3ccccc23)NC(=O)[C@H](CCCCN)NC(=O)[C@H](C(C)C)NC(=O)[C@H](C(C)C)NC(=O)[C@H](Cc2ccc(O)cc2)NC(=O)[C@H](Cc2ccccc2)NC(=O)[C@H](C(C)C)NC(=O)[C@H](C(C)C)NC(=O)[C@H](CCCCN)NC(=O)[C@H](C(C)C)NC(=O)[C@H](CO)NC1=O (stereo partly drawn) [KBTX-1, -F-Y-V-V-K-W-p-P-L-S-V-K-V-V-] (cyclo(FYVVKW[ξP]PLSVKVV))
cell death induction (CEM; KBTX-1): induces cell death | dependence of cell death on caspases and calcium (CEM; [3]): caspase-independent and Calcium dependent | calreticulin exposure (L5178Y-R [1]): induces calreticulin exposure | cell death induction (L5178Y-R [2]; KBTX-1): induces cell death | dependence of cell death on caspases and calcium (L5178Y-R [2]; [3]): caspase-independent and Calcium dependent
